Data published in patent US20060286112A1.
These are yes or no findings as the source states them, for the method shown. Some results given as binding are weak or reduced against the parent protein; the word gives no strength.

Sequences of proteins named here, by UniProt entry; tags and fusion partners are left off. Residues count along the entry.
UniProt P56199, residues 29-1179: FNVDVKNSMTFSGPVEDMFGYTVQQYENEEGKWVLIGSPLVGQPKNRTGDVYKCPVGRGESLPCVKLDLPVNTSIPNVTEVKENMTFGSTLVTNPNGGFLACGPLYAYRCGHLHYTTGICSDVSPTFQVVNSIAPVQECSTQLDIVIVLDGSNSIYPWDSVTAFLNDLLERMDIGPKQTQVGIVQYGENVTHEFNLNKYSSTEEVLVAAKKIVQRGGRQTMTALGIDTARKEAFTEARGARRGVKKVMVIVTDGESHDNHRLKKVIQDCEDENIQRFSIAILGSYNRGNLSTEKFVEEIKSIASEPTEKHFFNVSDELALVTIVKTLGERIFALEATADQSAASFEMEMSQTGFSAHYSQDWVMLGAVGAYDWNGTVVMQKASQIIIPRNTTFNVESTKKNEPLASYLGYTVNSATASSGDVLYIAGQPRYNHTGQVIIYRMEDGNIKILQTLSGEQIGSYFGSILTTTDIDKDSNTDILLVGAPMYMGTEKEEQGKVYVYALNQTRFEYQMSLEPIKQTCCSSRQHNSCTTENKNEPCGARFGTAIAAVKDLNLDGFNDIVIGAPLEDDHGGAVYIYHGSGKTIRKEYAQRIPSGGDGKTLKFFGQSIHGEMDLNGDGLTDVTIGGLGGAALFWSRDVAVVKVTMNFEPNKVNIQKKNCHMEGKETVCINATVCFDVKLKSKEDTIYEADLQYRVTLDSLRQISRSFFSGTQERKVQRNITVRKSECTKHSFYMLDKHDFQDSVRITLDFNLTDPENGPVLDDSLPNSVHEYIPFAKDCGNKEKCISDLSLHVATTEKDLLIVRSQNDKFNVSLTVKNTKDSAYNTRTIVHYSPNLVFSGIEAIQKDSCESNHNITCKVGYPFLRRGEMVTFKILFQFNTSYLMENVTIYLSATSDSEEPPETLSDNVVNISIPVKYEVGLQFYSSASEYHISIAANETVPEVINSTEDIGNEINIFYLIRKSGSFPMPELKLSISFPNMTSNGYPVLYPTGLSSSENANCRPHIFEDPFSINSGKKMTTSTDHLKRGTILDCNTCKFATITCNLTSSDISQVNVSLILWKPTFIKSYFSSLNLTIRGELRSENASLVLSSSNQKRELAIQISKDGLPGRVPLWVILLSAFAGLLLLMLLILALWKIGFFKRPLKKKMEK

Tests used:
[1] = molecular target: cynomolgus VLA-1 on IL-2 stimulated cynomolgus PBMC (cynomolgus (Macaca fascicularis)) (UniProt F7GLS1); experiment: FACS on IL-2 stimulated cynomolgus PBMC
[2] = molecular target: human VLA-1 α1 subunit (CD49a), full-length, on transfected CHO cells (human) (UniProt P56199); experiment: FACS on CHO-α1 cells

B1: 6.17 (antibody, V domains shown)
VH: EVQLVQSGAEVKKPGESLRISCKGSGYSVSSYWIGWVRQMPGKGLEWMGIIYPGDSDTRYSPSFQGQVTISADKSISTAFLQWISLKASDTAMYYCARLQGDCSGGSCYGHFDYWGQGTLVTVS
VL: EIVLTQSPGTLSLSPGERATLSCRASQTISSGYLAWYQQKPAQAPRLLIYVASRRATGIPDRFSGSGSGTDFTLTISRLEPEDFAVYYCQQYGSSSWTFGQGTTVEIK
**Q.** B1 was tested. Which binding [1] did it give?
**A.** binds

B2: 6.18 (antibody, V domains shown)
VH: EVQLVQSGAEVKKPGESLRISCKGSGYSVTSYWIGWVRQMPGKGLEWMGIIYPGDSDTRYSPSFQGQVTISADKSISTAYLQWSSLKASDTAMYYCARLQGDCSGGTCYGHFDYWGQGTLVTVS
VL: EIVLTQSPGTLSLSPGERATLSCRASQSVSSSYLAWYQQKPAQAPRLLIYVASRRATGIPDRFSGSGSGTDFTLTISRLEPEDFAVYYCQQYGTSSWTFGQGTTVEIK
**Q.** Which binding [1] does the source give for B2 here?
**A.** binds

B3: 6.48 (antibody, V domains shown)
VH: EVQLVQSGAEVKKPGESLRISCKGSGYSVSSYWIGWVRQMPGKGLEWMGIIYPGDSDTRYSPSFQGQVTISADKSISTAFLQWISLKASDTAMYYCARLQGDCSGGSCYGHFDCWGQGTLVTVS
VL: DVVLTQSPLSLPVTLGQPASISCRSSQSLVNSDGDTYLSWFQQWPGQSPRRLFYEVSNWDSGVPDRFSGSGSGTDFTLKISRVEAEDVGVYYCMQGTHWLTFGGGTKVEIK
**Q.** How did the binding [1] turn out when B3 was run?
**A.** binds

B4: 10.1 (antibody, V domains shown)
VH: QVQLQQSGPGLVKPSETLSLTCTVSGASISSYYWSWIRQPAGKGLEWIGRIYASGSTNYNPSLKSRVTMSVDTSKSQFSLNLSSVTAADTAVYYCAREGWERLQDYYYYGLDVWGQGTTVTVSS
VL: EIVLTQSPGTLSLSPGERATLSCRASQSVSRNYLAWNQQKPGQAPRLLIYGASSRATGIPDRFSGSGSGTDFTLTISRLEPEDFAVYYCQQYGSSPLTFGGGTKVEIK
**Q.** For B4, which binding [1] is on record?
**A.** binds

**Q.** What about the binding [2] of the same binder?
**A.** binds

B5: 2.7 (antibody, V domains shown)
VH: EVQLVESGGGLVKPGGSLRLSCAASGFTFSNAWMSWVRQAPGKGLEWVGRIKRKTDGETTDYAAPVKGRFTISRDDSRNTLYLQMNSLKTEDTAVYYCTIYTYYYGMDVWGQGTTVTVSS
VL: DIQMTQSPSSLSASVGDRVTITCRASQSINNYLNWYQQKPGKAPKLLIYAASSLESGVPSRFSGSGSGTDFTLTISSLQPEDFATYYCQQSYSTPPTFGQGTKVEIK
**Q.** For B5, which binding [1] is on record?
**A.** binds

B6: 2.19 (antibody, V domains shown)
VH: QVQLQESGPGLVKPSETLSLTCTVSGDSISSYYWSWIRQPPGKGLEWIGYVYYSGSTNYNPSLKSRVTMSVDTSKNQFSLKLSSVTAADTAVYYCARDLELYAFDIWGQGTMVTVSS
VL: EIVLTQFPGTLSLSPGERVTLSCRASQSVSSTYVVWYQQKPGQAPRLLIYGASSRATGIPDRFSGSGSGTDFTLTISRLEPEDFAVYYCQQHGSSPWTFGQGTKVEIK
**Q.** With B6 as the binder, how does the binding [1] read?
**A.** binds
